Experimental data from publication PMC3379994, “Comprehensive Analysis of Interactions between the Src-Associated Protein in Mitosis of 68 kDa and the Human Src-Homology 3 Proteome” (PLoS ONE, 2012).
No constants are given. Whether binding was seen depends on the method and setting. For some assays here: Binding seen in cells or lysates may run through a third protein. Some entries that bind do so weakly or less than the wild type.

Protein sequences, listed by entry. Tags and fused reporters are not part of them. Residues count along the entry.
UniProt Q96B97, residues 1-58: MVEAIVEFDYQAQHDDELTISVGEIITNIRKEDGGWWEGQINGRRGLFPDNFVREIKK
UniProt P06241, residues 82-143: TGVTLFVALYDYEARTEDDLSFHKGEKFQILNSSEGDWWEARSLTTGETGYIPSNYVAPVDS
UniProt P08631, residues 78-138: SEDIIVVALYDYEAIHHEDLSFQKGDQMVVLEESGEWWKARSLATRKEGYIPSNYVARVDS
UniProt P07948, residues 63-123: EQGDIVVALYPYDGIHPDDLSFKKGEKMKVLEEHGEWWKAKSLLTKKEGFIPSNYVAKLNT
UniProt Q9Y5X1, residues 1-62: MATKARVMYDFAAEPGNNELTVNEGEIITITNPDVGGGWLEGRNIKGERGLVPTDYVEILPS
UniProt P07947, residues 91-152: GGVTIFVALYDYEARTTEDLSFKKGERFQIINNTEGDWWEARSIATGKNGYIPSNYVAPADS
UniProt P27986, residues 3-79: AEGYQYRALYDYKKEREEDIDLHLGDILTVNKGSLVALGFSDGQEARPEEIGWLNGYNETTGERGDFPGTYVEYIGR

Key:
[1] = target: His-tagged Sam68 (Src-associated in mitosis, 68 kDa) (human (cDNA from HEK293T cells)) (UniProt Q07666); assay: phage display bio-panning; 10 µg His-Sam68 or GST-Sam68 immobilised on magnetic M-270 epoxy beads; human SH3 phage library (296 domains as pVIII fusions), 1 h; 10 washes with PBS + 0.05 % Tween-20; elution at pH 2.2; 162 clones sequenced; only the target purified
[2] = target: His-tagged Sam68 (Src-associated in mitosis, 68 kDa) (human (cDNA from HEK293T cells)) (UniProt Q07666); assay: ELISA; only the target purified
[3] = target: CFP-tagged Sam68 (human (cDNA from HEK293T cells)) (UniProt Q07666); assay: FRET or BRET; flow-cytometry-based FRET in living 293T cells co-transfected with CFP- and YFP-tagged proteins, analysed 48 h after transfection

| Substance | binding [1] | binding [2] | binding [3] |
| --- | --- | --- | --- |
| SH3 domain #1 from Cbl-interacting 85 kDa protein (CIN85), displayed on M13 phage (from UniProt Q96B97 1-58) (domain or fragment) | binds | – | – |
| SH3 domain from Fyn, displayed on M13 phage (from UniProt P06241 82-143) (domain or fragment) | binds | binds | – |
| SH3 domain from Hck, displayed on M13 phage (from UniProt P08631 78-138) (domain or fragment) | binds | binds | – |
| SH3 domain from Lyn, displayed on M13 phage (from UniProt P07948 63-123) (domain or fragment) | binds | binds | – |
| SH3 domain from Sorting nexin 9, displayed on M13 phage (from UniProt Q9Y5X1 1-62) (domain or fragment) | binds | – | – |
| SH3 domain from Yes, displayed on M13 phage (from UniProt P07947 91-152) (domain or fragment) | binds | binds | – |
| SH3 domain from p85α, displayed on M13 phage (from UniProt P27986 3-79) (domain or fragment) | binds | binds | – |
| YFP-tagged SH3 domain of Fyn (from UniProt P06241 82-143) (domain or fragment) | – | – | binds |
| YFP-tagged SH3 domain of Hck (from UniProt P08631 78-138) (domain or fragment) | – | – | binds |
| YFP-tagged SH3 domain of Lyn (from UniProt P07948 63-123) (domain or fragment) | – | – | binds |
| YFP-tagged SH3 domain of Yes (from UniProt P07947 91-152) (domain or fragment) | – | – | binds |
| YFP-tagged SH3 domain of p85α (from UniProt P27986 3-79) (domain or fragment) | – | – | binds |
